Data on 1 compound can be found in patent US10487349B2, “Use of a fluidic device” (GRADIENTECH AB, priority 2013, dated 2019).

In brackets after ≈: the same amount, converted by molar mass.

For this test, the system named is E. coli K12 MG1655. Put plainly: Microfluidic 3D culture matrix concentration-gradient antibiotic susceptibility test (CELLDIRECTOR Ruby). Format: cell-based. Particulars: Escherichia coli; E. coli K12 MG1655 in agarose 3D culture matrix, linear gradient of ampicillin 20-0 μg/ml, Mueller-Hinton medium, 37° C., read from light intensity profile; read-out: minimum inhibitory concentration (MIC). The protocol:
Bacterium strain E. coli K12 MG1655 was cultured on a Luria broth (LB) plate. The E. coli cells were diluted by phosphate buffered saline (PBS) to OD600=0.1 as measured by a MULTISKAN® FC Microplate Photometer (Thermo Scientific). Same volumes of PBS with OD600=0.1 cells and low-melting temperature agarose were mixed together. A pipette with white tips was used to suck up 8 μl of the mixture and inject the mixture into the culture chamber of a microfluidic device CELLDIRECTOR® Ruby (Gradientech AB), see upper panel in FIG. 20. The fluid channel inputs of the microfluidic device were connected to fluid reservoirs comprising Muelle-Hinton medium and where one of the reservoirs also contained 20 μg/ml ampicillin. The speed of a pusher used to draw the medium into the fluid channels was set to 5 μl/min for 30 minutes and then to 2 μl/min for the rest of the time. […]
The pictures were cut to match a selected central portion of the culture chamber, see black box in FIGS. 17A and 18A. Image processing software was used to extract detected light intensity data from the pictures. A spatial growth situation distribution diagram was used to summarize the grey-scale values, i.e. detected light intensity values, of all the lines that are perpendicular to the direction of the gradient as the Y-axis with the concentration gradient as the X-axis. […]

On to `CC1(C)S[C@@H]2[C@H](NC(=O)[C@H](N)c3ccccc3)C(=O)N2[C@H]1C(=O)O` [ampicillin], for which the MIC was found to be 5 µg/mL (≈ 14.3 µM).
